Laboratory results from PubChem BioAssay AID588590 (National Center for Advancing Translational Sciences (NCATS), 2011).
The whole screen tested about 390,000 compounds, of which about 4,000 (1%) were called active. The inconclusive results got no clear call from the source; some entries with a clear call stand among them for comparison. Calls follow the shape of the dose curve; as a rule, active = well fitted inhibition curve with a large enough effect; inconclusive = small, poorly fitted or top-dose-only effect, or another doubt; inactive = no such curve, though single readings can be large or run the other way. Potencies of inconclusive entries are doubtful fits and often do not repeat.

The chains behind the UniProt entries cited, without tags or fusion partners. Where a name states a change or a piece, a line headed by the entry shows the natural chain unless it says otherwise.
UniProt Q9UNA4: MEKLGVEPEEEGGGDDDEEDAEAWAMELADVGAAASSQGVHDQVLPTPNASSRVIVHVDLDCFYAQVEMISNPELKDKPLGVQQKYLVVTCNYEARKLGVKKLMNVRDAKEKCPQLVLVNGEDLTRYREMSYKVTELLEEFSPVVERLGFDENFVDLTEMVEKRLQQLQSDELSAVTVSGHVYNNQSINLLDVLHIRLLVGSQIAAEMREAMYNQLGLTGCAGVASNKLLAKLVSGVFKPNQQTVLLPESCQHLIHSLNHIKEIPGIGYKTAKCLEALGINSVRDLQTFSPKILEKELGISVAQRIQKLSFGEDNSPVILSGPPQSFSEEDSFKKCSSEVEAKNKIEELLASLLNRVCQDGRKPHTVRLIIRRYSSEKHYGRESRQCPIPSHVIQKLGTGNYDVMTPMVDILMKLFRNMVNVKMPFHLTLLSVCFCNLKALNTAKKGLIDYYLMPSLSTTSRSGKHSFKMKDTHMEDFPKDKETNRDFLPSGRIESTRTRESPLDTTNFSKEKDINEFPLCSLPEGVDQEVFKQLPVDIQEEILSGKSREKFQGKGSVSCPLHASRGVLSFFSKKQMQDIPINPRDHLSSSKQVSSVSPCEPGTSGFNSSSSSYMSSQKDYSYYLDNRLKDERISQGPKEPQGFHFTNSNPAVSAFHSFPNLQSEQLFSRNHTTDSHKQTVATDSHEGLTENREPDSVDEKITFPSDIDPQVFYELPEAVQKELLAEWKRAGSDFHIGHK

target: DNA polymerase iota (Homo sapiens) (UniProt Q9UNA4); assay: qHTS for Inhibitors of Polymerase Iota; conditions: Pol iota fluorescent replication assay, 10 min; series mostly up to 115 µM; activity, negative = inhibition: at the top concentration
Method in brief: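 Fluorescent replication assay read twice, at 0 min and 10 min after adding 50 nM (final) substrate. Enzyme (10 nM) and compounds were first incubated 15 min at room temperature; enzyme-free buffer wells were negative controls.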
Potency is read from the fitted curve at half-maximal effect.

SMILES | Potency | activity, negative = inhibition
c1ccc(Cn2c(SCc3nc4ccccc4s3)nnc2-c2ccco2)cc1 | active: 22.4 µM | 
CCc1nc2cccnc2n1-c1ccc(CC(=O)Nc2c(C)cccc2C)cc1 |  | inactive: 7.57%
CN1C(=O)C(C)(C)c2cc(S(=O)(=O)N3CCN(c4cccc(Cl)c4)CC3)ccc21 | inconclusive: 89.1 µM [inhibitor, single point] | 
COc1ccc(C(=O)NNC(=O)CSc2nnc(COc3ccc4ccccc4c3)n2C)cc1 |  | inactive: 7.97%
CC(CN1CCOCC1)OC(=O)/C=C/c1ccccc1 (stereo not given) | inconclusive: 89.1 µM [inhibitor, partial curve, poor fit] | 
Cc1cccc(NC(=O)c2nc[nH]c2C(=O)N[C@@H](C)C(=O)OCc2ccccc2)c1 | inconclusive: 89.1 µM [inhibitor, partial curve, poor fit] | 
CCOC(=O)C1=C(C)NC(=O)NC1c1ccc(C)o1 (stereo not given) | active: 56.2 µM | 
Cc1ccnc(SC2CC(=O)N(c3ccc(Cl)cc3)C2=O)n1 (stereo not given) | inconclusive: 3.55 µM [inhibitor, partial curve, poor fit] | 
O=C1c2cccnc2C(O)N1C1CCCCC1 (stereo not given) | inconclusive: 12.6 µM [inhibitor, partial curve, poor fit] | 
CC1CCc2ccccc2N1C(=N)N(C)C (stereo not given) |  | inactive: 121%
Cc1cc(N2CCN(S(=O)(=O)c3ccc(Cl)cc3)CC2)c2ccccc2n1 | inconclusive: 50.1 µM [inhibitor, partial curve, poor fit] | 
CCCc1nc2ccccc2n1CC(O)COc1ccc(C(=O)OC)cc1 (stereo not given) |  | inactive: 8.33%
CCOC(=O)C1CCCN(C(=O)Cn2ncc3c(C)n(Cc4ccccc4Cl)c(C)c3c2=O)C1 (stereo not given) |  | inactive: 18.9%
CSc1ccc(/C=N/NC(=O)c2ccccc2Cl)cc1 |  | inactive: 48.2%
CCOC(=O)C(=CNc1cc(OC)ccc1-n1cccc1)C(=O)OCC | inconclusive: 89.1 µM [inhibitor, single point] | 
Cc1ccc2nc(NC(=O)CSc3nccn3-c3ccc(Cl)cc3)sc2c1 | inconclusive: 89.1 µM [inhibitor, single point] | 
COc1cc(Cl)cc(C2NC(=O)NC(C)=C2C(C)=O)c1OCC(=O)O (stereo not given) | inconclusive: 28.2 µM [inhibitor, single point] | 
C(#CCN1CCOCC1)COC(c1ccccc1)c1ccccc1 | inconclusive: 39.8 µM [inhibitor, single point] | 
CC(C)(C)OC(=O)N1CCC(c2c(C(=O)N3CCN(c4ccccn4)CC3)cnn2-c2ccccc2)CC1 | inconclusive: 89.1 µM [inhibitor, single point] | 
COc1ccc(Nc2nc(-c3cccs3)nc3ccccc23)c(OC)c1 | inconclusive: 112 µM [inhibitor, single point] | 
Fc1ccc(Nc2nc(-c3ccncc3)cs2)cc1 |  | inactive: 85.8%
O=C(CCn1c(=O)oc2ccccc21)N(Cc1ccccc1)c1ccccn1 | inconclusive: 89.1 µM [inhibitor, single point] | 
Cc1ccc(OCC(=O)NCC2(N(C)C)CCCCC2)cc1C |  | inactive: 23%

Four entries already listed, ordered by molar mass, high to low:
SMILES | Potency | activity, negative = inhibition
CCOC(=O)C1CCCN(C(=O)Cn2ncc3c(C)n(Cc4ccccc4Cl)c(C)c3c2=O)C1 (stereo not given) |  | inactive: 18.9%
O=C(CCn1c(=O)oc2ccccc21)N(Cc1ccccc1)c1ccccn1 | inconclusive: 89.1 µM [inhibitor, single point] | 
COc1ccc(Nc2nc(-c3cccs3)nc3ccccc23)c(OC)c1 | inconclusive: 112 µM [inhibitor, single point] | 
CCOC(=O)C(=CNc1cc(OC)ccc1-n1cccc1)C(=O)OCC | inconclusive: 89.1 µM [inhibitor, single point] | 

Carrying on:

SMILES | Potency | activity, negative = inhibition
COc1ccc2nc(N3CCCCC3)c(C#N)cc2c1 | inconclusive: 39.8 µM [inhibitor, single point] | 
COc1ccc(OC)c(S(=O)(=O)NCCCN2CCCC2=O)c1 |  | inactive: 59.2%
COC(=O)Nc1ccc(SCC(=O)c2cccc([N+](=O)[O-])c2)cc1 | inconclusive: 28.2 µM [inhibitor, partial curve, poor fit] | 
Cc1ccc2nc(/C(C#N)=C\c3cc(C)n(-c4cccc([N+](=O)[O-])c4)c3C)[nH]c2c1 |  | inactive: -8.25% [at 58.9 µM]
COC(=O)c1ccc(CSc2nnc3c(Cl)cc(Cl)cn23)o1 | inconclusive: 79.4 µM [inhibitor, partial curve, poor fit] | 
CSCCC(=O)Nc1cc(S(=O)(=O)N2CCOCC2)ccc1N1CCN(C)CC1 |  | inactive: 7.88%
Cc1nnc(NC(=O)CSc2nnc(Cc3cccn3C)n2-c2cccc(C(F)(F)F)c2)s1 | inconclusive: 10 µM [inhibitor, partial curve, poor fit] | 
Cc1ccccc1OCCCCCNCCO | inconclusive: 15.8 µM [inhibitor, partial curve, poor fit] | 
CC1(C)C(=O)OC(c2ccco2)C(C)(C)C1=O (stereo not given) | inconclusive: 17.8 µM [inhibitor, single point] | 
COc1ccccc1-n1c(/C=C/c2c(C)n(C)c3ccccc23)nc2ccccc2c1=O | inconclusive: 35.5 µM [inhibitor, single point] | 
Cc1ccc(CSc2nc(-c3ccccc3)c(C#N)c(=O)[nH]2)cc1 | inconclusive: 50.1 µM [inhibitor, partial curve] | 
CCOC(=O)N1CCN(C(=O)c2ccc3nc(N4CCCCC4)sc3c2)CC1 | inconclusive: 112 µM [inhibitor, single point] | 
CCOc1nc(NC(=O)NS(=O)(=O)Oc2ccccc2)nc(-c2ccccc2)n1 | inconclusive: 89.1 µM [inhibitor, single point] | 
Cc1c(Cl)cccc1NC(=S)NC(=O)c1cncc(Br)c1 | inconclusive: 89.1 µM [inhibitor, single point] | 
CC(C)(C)C(=O)NC(=S)Nc1sc2c(c1C(N)=O)CCC2 | inconclusive: 10 µM [inhibitor, partial curve, poor fit] | 
CN(C)CCCN1C(=O)c2cccc3c(Br)ccc(c23)C1=O | inconclusive: 44.7 µM [inhibitor, partial curve, poor fit] | 
S=c1[nH]nc(-c2cc3c(s2)-c2ccccc2CC3)o1 |  | inactive: 0.781%
COc1cc(C)c(NC(=O)C(=S)N2CCCC2)cc1C | inconclusive: 89.1 µM [inhibitor, single point] | 
COc1ccc(OC)c(N(CC(=O)Nc2ccccc2)S(=O)(=O)c2ccccc2)c1 |  | inactive: 2.57%
COC(=O)c1c(CCl)noc1C(=O)NC(C)C | inconclusive: 25.1 µM [inhibitor, single point] | 
N#Cc1c[nH]n2c(NC3CCCC3)c(-c3cccc(Cl)c3)nc12 | inconclusive: 89.1 µM [inhibitor, single point] | 
O=[N+]([O-])c1cc(C(F)(F)F)ccc1NCCNC(=S)Nc1ccc(Cl)cc1 | inconclusive: 12.6 µM [inhibitor, full curve] | 
